Binding data for one substance are collected here from paper PMC8050912.

By UniProt entry, the sequences of proteins in these tests, tags left out.
UniProt P25963: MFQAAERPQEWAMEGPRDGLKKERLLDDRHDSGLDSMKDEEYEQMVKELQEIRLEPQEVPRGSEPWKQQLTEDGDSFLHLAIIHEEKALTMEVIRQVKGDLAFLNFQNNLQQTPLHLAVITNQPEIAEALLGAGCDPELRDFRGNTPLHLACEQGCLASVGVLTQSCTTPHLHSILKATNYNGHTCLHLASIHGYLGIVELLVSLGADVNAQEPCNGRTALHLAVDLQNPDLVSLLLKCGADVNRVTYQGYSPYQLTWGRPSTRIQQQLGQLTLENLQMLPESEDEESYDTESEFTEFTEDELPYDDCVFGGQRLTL
UniProt Q04206: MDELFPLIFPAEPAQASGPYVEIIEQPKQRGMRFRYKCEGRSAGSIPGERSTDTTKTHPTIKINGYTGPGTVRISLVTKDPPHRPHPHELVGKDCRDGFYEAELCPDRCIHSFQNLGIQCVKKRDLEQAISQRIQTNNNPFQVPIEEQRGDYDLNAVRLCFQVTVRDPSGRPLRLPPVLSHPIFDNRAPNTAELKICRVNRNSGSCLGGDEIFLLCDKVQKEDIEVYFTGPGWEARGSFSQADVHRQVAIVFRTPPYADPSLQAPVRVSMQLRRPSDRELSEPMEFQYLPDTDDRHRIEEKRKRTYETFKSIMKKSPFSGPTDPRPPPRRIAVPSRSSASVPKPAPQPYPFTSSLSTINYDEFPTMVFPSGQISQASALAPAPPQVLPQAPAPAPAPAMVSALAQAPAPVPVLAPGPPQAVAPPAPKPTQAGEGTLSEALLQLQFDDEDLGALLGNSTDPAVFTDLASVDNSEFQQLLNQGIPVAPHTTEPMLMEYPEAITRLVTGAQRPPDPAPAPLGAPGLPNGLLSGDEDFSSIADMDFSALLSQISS

Results are given in words; binding and its absence hold for the method and conditions named. Binding seen in cells or lysates may run through a third protein.

For the test, the target named is GST-IκBα (UniProt P25963). In words: pull-down; as a5, but in the presence of 100 μM PSA for 1 h; only the target purified.

On to “endogenous p65 (from UniProt Q04206 1-551)”, for which the binding result is recorded as “no binding (condition: with 100 μM PSA for 1 h)”.
